# According to PubChem BioAssay AID624297 (National Center for Advancing Translational Sciences (NCATS), 2012):
# In all, about 340,000 compounds went through this assay and about 6,200 (1.8%) were called active. The inconclusive results got no clear call from the source; some entries with a clear call stand among them for comparison. Calls follow the shape of the dose curve; as a rule, active = well fitted activation curve with a large enough effect; inconclusive = small, poorly fitted or top-dose-only effect; inactive = no such curve, though single readings can be large or run the other way. A potency beside an inconclusive call is a rough fit, not a confirmed value.
# Test: A quantitative high throughput screen for small molecules that induce DNA re-replication in SW480 colon adenocarcinoma cells. Also: nearly all actives have a fitted effect of over 55% in size. As to re-replication activation: % of control where 0% means no effect.
# Conditions: Hoechst DNA content imaging, 48 h; re-replication activation: at 46.1 µM (top of the series) unless noted
# Method in brief: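 Cells (250 per well) received 23 nL compound or DMSO by pin tool and were kept 48 hr at 37 C, 5% CO2. Nuclei were then stained with Hoechst for 40 min and scanned for DNA content.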
# Potency is read from the fitted curve at half-maximal effect.
SMILES,Potency,re-replication activation
O=C(O)[C@@H](O)[C@@H](O)[C@H](O)[C@H](O)CO,"inconclusive: 13.3 µM [activator, single point]",–
COc1ccc(CN2C(CC(=O)Nc3cccnc3)c3ccc(C(F)(F)F)cc3S2(=O)=O)cc1 (stereo not given),–,inactive: -6.2% [at 9.22 µM]
Cc1cc(C)c(S(=O)(=O)Nc2cccc(S(=O)(=O)NC3=NCCC3)c2)c(C)c1,"inconclusive: 29.1 µM [activator, single point]",–
O=C(O)CSc1nc2ccc(Cl)cc2[nH]1,–,inconclusive: 50.1% [activator]
COc1ccc(-c2sc3cc(OC)ccc3c2-c2ccc(OCCN3CCOCC3)cc2)cc1,"inconclusive: 4.11 µM [activator, partial curve, poor fit]",–
CCn1nc([N+](=O)[O-])c(C(C#N)c2nc3ccccc3n2C)c(Cl)c1=O (stereo not given),inactive,–
CCc1c(C(=O)NNC(=S)Nc2ccc(S(=O)(=O)Nc3ncccn3)cc2)csc1C,"inconclusive: 0.0046 µM [activator, full curve, poor fit]",–
CCc1ccc(S(=O)(=O)Nc2cccc(-c3ccc4nncn4n3)c2)s1,"inconclusive: 25.9 µM [activator, single point]",–
COc1cc2c(cc1OC)C(c1cccc(C)c1)CC(=O)N2 (stereo not given),active: 4.11 µM,–
CCc1cc2c(=O)c(-c3nc4ccccc4n3C)c(COCC(=O)O)oc2cc1O,"inconclusive: 18.4 µM [activator, partial curve, poor fit]",–
CON(C)c1nc(C2CCCCC2)c2cc(C)ccc2n1,"inconclusive: 0.146 µM [activator, full curve, poor fit]",–
O=C1CCCC2=C1C1(CCCCC1)N=C(Nc1nc3ccccc3o1)N2,"inconclusive: 29.1 µM [activator, partial curve, poor fit]",–
COc1cc(NC(=O)C2CC(c3cccc(OC)c3OC)=NO2)cc(OC)c1OC (stereo not given),"inconclusive: 31.6 µM [activator, single point]",–
COCCC(=O)N1CCC(Oc2ccc(C(=O)N3CCCC(COC)C3)cc2)CC1 (stereo not given),inactive,–
Cc1ccccc1CC(=O)N1CCCC(CNC(=O)c2ccc(F)cc2)C1 (stereo not given),"inconclusive: 0.0146 µM [activator, full curve, poor fit]",–
CCCCn1c(-c2cccs2)nc2nc3ccccc3nc21,"inconclusive: 18.4 µM [activator, single point]",–
Cc1cc2c(cc1S(=O)(=O)CCC(=O)N(C)Cc1ccccc1)OCC(=O)N2,inactive,–
O=C1CC(c2ccccc2)=NN1c1ccccc1,"inconclusive: 29.1 µM [activator, single point]",–
CCC(C)Sc1cccc(-c2nc3cc(C)ccn3c2NCc2ccccc2)c1 (stereo not given),"inconclusive: 20.6 µM [activator, single point]",–
Cc1ccc2sc(N(CCCN(C)C)C(=O)c3nc4ccccc4s3)nc2c1C,"inconclusive: 0.82 µM [activator, full curve, poor fit]",–
COc1cc(OC)c(OC)cc1/C=N/Nc1ncnc2c1[nH]c1ccccc12,"inconclusive: 5.8 µM [activator, partial curve, poor fit]",–
COC(=O)[C@]1(Cc2ccccc2)N[C@H](CN(C)C(=O)c2ccc(F)cc2)[C@@H]2C(=O)N(C)C(=O)[C@@H]21,"inconclusive: 0.651 µM [activator, single point]",–

SMILES,Potency,re-replication activation
CNS(=O)(=O)c1cc2c3c(cccc3c1)C(=O)NC2=O,"inconclusive: 13 µM [activator, partial curve, poor fit]",–
CSC(=Nc1ccccc1)N=C(SCc1ccccc1)N(C)C,active: 7.31 µM,–
O=C(c1ccccn1)N1N=C2/C(=C/c3ccccc3)CCCC2C1c1ccccc1 (stereo not given),"inconclusive: 16.4 µM [activator, partial curve, poor fit]",–
Cc1nc(NC(=O)/C=C/c2ccccc2)n[nH]1,"inconclusive: 13 µM [activator, single point]",–
CCOC(=O)c1sc(NC(=O)CSc2ncn[nH]2)c(C#N)c1C,active: 9.2 µM,–
Cc1cc(-c2ccc(C)c(S(=O)(=O)NCCCN3CCN(c4ccccc4)CC3)c2)on1,"inconclusive: 14.6 µM [activator, single point]",–
N#Cc1c(NC(=O)c2cccnc2)sc2c1CCC2,active: 16.4 µM,–
Cc1cccc(NC(=S)NCc2ccc3c(c2)cc(C)n3C)c1C,"inconclusive: 18.4 µM [activator, single point]",–
CN(C)c1ccc(/C=N/NC(=O)c2nnn(-c3nonc3N)c2CN(C)c2ccccc2)cc1,active: 9.2 µM,–
CCC(Oc1ccc2c(=O)c(-c3ccccc3OC)coc2c1)C(=O)OCc1ccccc1 (stereo not given),inactive,–
COc1ccc2c(CC(=O)Nc3ncc(C)s3)coc2c1,"inconclusive: 14.6 µM [activator, partial curve, poor fit]",–
CCOC(=O)C1=C(C)NC(=S)N(C(C)=O)C1c1ccccc1 (stereo not given),"inconclusive: 29.1 µM [activator, single point]",–
COc1ccccc1-c1cc(C(F)(F)F)nc(NCc2cccs2)n1,inactive,–
CC(CCc1ccco1)NC(=O)c1cc2c(-c3ccccc3F)nn(C)c2s1 (stereo not given),inactive,–
N#CC1=C(N)NC(SCc2ccccc2)=C(C#N)C12CCCCC2,"inconclusive: 8.2 µM [activator, partial curve]",–
CC(=NNC(=S)N(Cc1ccccn1)Cc1ccccn1)c1cnccn1,"inconclusive: 13 µM [activator, partial curve, poor fit]",–
Cc1ccc(-c2csc(NC(=O)CSc3nnc4c(n3)[nH]c3ccccc34)n2)cc1,"inconclusive: 29.1 µM [activator, partial curve, poor fit]",–
COc1ccc([C@H]2CC(=O)C=C(c3ccc4ncccc4c3)C2)cc1,"inconclusive: 18.4 µM [activator, single point]",–
Cc1cc(/C=C2\SC(=S)N(C)C2=O)c(C)n1-c1cccc(O)c1,inactive,–
CN1CCN(CCNC(=O)c2ccc3nc(-c4ccc(F)cc4)c(-c4ccc(F)cc4)nc3c2)CC1,"inconclusive: 0.651 µM [activator, full curve, poor fit]",–
COC(=O)c1cc(S(=O)(=O)N(C)C2CCCCC2)c[nH]1,inactive,–
COc1cc2nc(N3CCN(C(=O)C4COc5ccccc5O4)CC3)nc(N)c2cc1OC (stereo not given),active: 20.6 µM,–

# Complete entries, looked up by structure. Values in the order: Potency	re-replication activation
# `O=C(c1ccccn1)N1N=C2/C(=C/c3ccccc3)CCCC2C1c1ccccc1` (stereo not given) as listed: inconclusive: 16.4 µM [activator, partial curve, poor fit]	–
# `CNS(=O)(=O)c1cc2c3c(cccc3c1)C(=O)NC2=O` as listed: inconclusive: 13 µM [activator, partial curve, poor fit]	–

# Further structures follow:

SMILES,Potency,re-replication activation
COc1cc(C=O)ccc1OCCOCCOc1ccc(Cl)cc1,inactive,–
Cc1cc(CNC(=O)c2ccc3c(c2)OCO3)c2ccccc2n1,"inconclusive: 25.9 µM [activator, single point]",–
CCN1C(=O)N(S(=O)(=O)c2ccc(C)cc2)[C@@H](c2ccccc2)C(C(=O)OC)=C1C,"inconclusive: 16.4 µM [activator, single point]",–
CN(C)CCOC(=O)c1ccc2[nH]c3c(c2c1)CSCC3,active: 7.31 µM,–
CC(=O)c1ccc(OCC(=O)NC(=O)NC2CCCCC2)cc1,inactive,–
COc1ccc(C(=O)Oc2ccc(F)cc2C(=O)/C=C/c2ccc(OC)c(OC)c2)cc1,"inconclusive: 25.9 µM [activator, single point]",–
N#Cc1c(NC(=O)CSc2ncccn2)oc(-c2ccccc2)c1-c1ccccc1,inactive,–
Cc1ccc(NC(=O)CSc2n[nH]c(C)c2[N+](=O)[O-])cc1,"inconclusive: 9.2 µM [activator, partial curve, poor fit]",–
Cc1cccc(Cn2c(C)c(C)c3cc(C(=O)NCCN4CCOCC4)ccc32)c1,"inconclusive: 23.1 µM [activator, single point]",–
CN(C)Cc1c(C(=O)N/N=C/c2ccccc2OCc2c(F)cccc2Cl)nnn1-c1nonc1N,"inconclusive: 29.1 µM [activator, single point]",–
CCNC(=S)N/N=C/c1ccc(OCC(=O)Nc2ccc(C)cc2)cc1,"inconclusive: 16.4 µM [activator, partial curve]",–
C/C(=N\NC(=O)Cc1ccccc1)c1ccc(Cl)s1,"inconclusive: 2.91 µM [activator, full curve, poor fit]",–
O=C(NCc1nc2ccccc2[nH]1)C1=C[C@@H](C2CCCCC2)C[C@@H](OCc2ccc(CO)cc2)O1,"inconclusive: 5.17 µM [activator, partial curve, poor fit]",–
COc1ccc(NS(=O)(=O)NC(=O)c2c(C)n(C)c3ccccc23)cc1,"inconclusive: 16.4 µM [activator, single point]",–
O=C(COC(=O)c1cc(Br)ccc1O)NNC(=O)c1ccc([N+](=O)[O-])cc1,"inconclusive: 0.0052 µM [activator, full curve, poor fit]",–
O=C(NCCC1=CCCCC1)C1CCC(=O)N(Cc2cccc(C(F)(F)F)c2)C1 (stereo not given),inactive,–
COc1cccc(C(=O)NNC(=O)C2CCCO2)c1 (stereo not given),"inconclusive: 29.1 µM [activator, partial curve, poor fit]",–
CN(C)S(=O)(=O)c1cccc(NC(=S)Nc2cccc3cnccc23)c1,"inconclusive: 29.1 µM [activator, single point]",–
Cc1nc(-c2ccccc2)sc1-c1nc(-c2ccncc2)ncc1S(=O)(=O)c1ccccc1,"inconclusive: 29.1 µM [activator, single point]",–
O=C(CCS(=O)(=O)c1ccccc1)Nc1ccc(-c2nc3ccccc3s2)cc1,"inconclusive: 18.4 µM [activator, partial curve, poor fit]",–
CCN(CC)CCCn1c2c(c(SCC(=O)Nc3ccc4c(c3)OCCO4)nc1=O)CCC2,inactive,–

# Quoted from the results shown for reference:
SMILES,Potency,re-replication activation
COc1cc(C=O)ccc1OCCOCCOc1ccc(Cl)cc1,inactive,–
Cc1cc(CNC(=O)c2ccc3c(c2)OCO3)c2ccccc2n1,"inconclusive: 25.9 µM [activator, single point]",–
CCN1C(=O)N(S(=O)(=O)c2ccc(C)cc2)[C@@H](c2ccccc2)C(C(=O)OC)=C1C,"inconclusive: 16.4 µM [activator, single point]",–
